Consider 18 molecules from the supplement of paper PMC9549374.

Some of the results follow. Rule as the data show it: active = 2-fold of DMSO or more and inactive = the rest. Single values of this set are uncertain. Some low values are a fixed figure set by the source, not a measured ratio.

The test system of this experiment is CM7/1-hgem mouse ES cell-derived cardiomyocytes. As to the kind of experiment: maximal number of mAG-hGem(1/110)-positive cardiomyocytes over 96 h, fold-change vs DMSO; higher = more cardiomyocyte cell cycle activity. Conditions: 1 µM; 96 (max over 12 h time points) h.
With `CC(C)c1c(O)c(-c2cc3c(c(C(C)C)c2O)CCC2C(C)(C)CCC[C@]32C)cc2c1CCC1C(C)(C)CCC[C@]21C` (stereo partly drawn), the maximal number is inactive: 0.
For the molecule `CC1(C)CC2C1CCC1(C)OC1CCC2(C)O` (stereo not drawn), the maximal number was inactive: 1.
In the case of `CC(=O)OC1CC2CCC1(C)C2(C)C` (stereo not drawn), the maximal number was inactive: 1.
The same measure for `N#CCC(=O)NN`: inactive: 1.
Take `CS(C)(=O)=O`: the maximal number was inactive: 1.
For `O=C(Oc1cc(O)cc2c1C[C@@H](OC(=O)c1cc(O)c(O)c(O)c1)[C@@H](c1ccc(O)c(O)c1)O2)c1cc(O)c(O)c(O)c1` the value was inactive: 0.
As for `CC[N+](C)(C)c1cccc(O)c1`, the maximal number is inactive: 1.
The same measure for `CC(=O)c1ccc[nH]1`: inactive: 1; for `COc1ccc2cc([C@H](C)CO)ccc2c1`: inactive: 1.
The same measure for `O=c1c(O)cccc2cc(O)c(O)c(O)c12`: inactive: 0; for `CCN(CC)CCOC(=O)C(c1ccccc1)C1CCCCC1` (stereo not drawn): inactive: 1; for `C[C@@H]1CC[C@@]2(OC1)O[C@H]1C[C@H]3[C@@H]4CC[C@@H]5C[C@@H](O)CC[C@]5(C)[C@H]4CC[C@]3(C)[C@H]1[C@@H]2C`: inactive: 1.
As for `CCC1(C)CC(=O)NC1=O` (stereo not drawn), the maximal number is inactive: 1.
The same measure for `NCCC(=O)N[C@@H](Cc1c[nH]cn1)C(=O)O`: inactive: 1; for `CC(C)=CCOc1cc2oc(=O)ccc2cc1O`: inactive: 1; for `COc1cc(C)c(C(=O)Oc2cc(C)c(C(=O)O)c(O)c2C)c(OC)c1C`: inactive: 0.
The same measure for `CC(C)OC(=O)C(C)(C)Oc1ccc(C(=O)c2ccc(Cl)cc2)cc1`: inactive: 1; for `O=C(CCCN1CC=C(n2c(=O)[nH]c3ccccc32)CC1)c1ccc(F)cc1`: inactive: 1.
